{
  "source": "PubChem BioAssay AID1347076",
  "about": "(National Center for Advancing Translational Sciences (NCATS), 2019)",
  "note": "About 13,000 (3.2%) of roughly 400,000 compounds were called active. This list was built around the results that the source calls inconclusive (neither active nor inactive); the mix of calls is not that of the screen. Calls follow the shape of the dose curve; as a rule, active = well fitted cell-killing curve with a large enough effect; inconclusive = small, poorly fitted or top-dose-only effect, or effect the other way; inactive = flat fitted curve, though single readings scatter. Potencies beside an inconclusive call are fits to weak or partial responses and may not hold up. % is scaled to controls: 0 for no effect and ±100 for the full control effect; potency is read from the fitted curve at half-maximal effect.",
  "data": [
    {"assay": "qHTS assay for MDR1-selective chemotherapeutics: Primary screen using the drug-selected MDR subline cells KB-V1; also: nearly all actives have a fitted effect of over 60% in size", "conditions": "KB-V1 MDR cells viability, CellTiter-Glo, 72 h; activity change, negative = cytotoxicity: at 46.1 µM (top of the series)", "in_short": "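Potencies derive from concentration-effect curves fitted to normalized luminescence (CellTiter-Glo) of KB-V1 cells treated for 72 h at 37 degrees C in phenol-red-free DMEM containing 10% FBS.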", "values": [
      {"smiles": "CCc1cccc2c1NC(=O)C21N2CCCC2C(C(=O)c2ccc3ccccc3c2)C12C(=O)Nc1ccccc12", "note": "(stereo not given)", "Potency": "inconclusive: 18.4 µM [cytotoxic, single point]"},
      {"smiles": "CC1(NC(=O)Nc2cc([N+](=O)[O-])ccc2O)CCS(=O)(=O)C1", "note": "(stereo not given)", "Potency": "inactive"},
      {"smiles": "COc1ccc(CNC(=O)C(C)n2ccc3cc(S(=O)(=O)N4CCCCCC4)ccc32)cc1", "note": "(stereo not given)", "Potency": "inconclusive: 9.2 µM [cytotoxic, partial curve]"},
      {"smiles": "COC(=O)c1ccc(Oc2cc(C)nc(-n3nc(C)cc3C)n2)cc1", "Potency": "active: 1.84 µM"},
      {"smiles": "CSCCC(N=C(NS(=O)(=O)c1ccc(C)cc1)c1ccccc1)C(=O)O", "note": "(stereo not given)", "Potency": "inactive"},
      {"smiles": "Cc1onc(-c2ccccc2)c1C(=O)OCC(=O)NC(=O)c1ccccc1", "Potency": "inactive"},
      {"smiles": "O=C(CCN1C(=O)COc2ccccc21)NCCN1CCN(c2cccc(Cl)c2)CC1", "Potency": "inconclusive: 29.1 µM [cytotoxic, single point]"},
      {"smiles": "COc1ccc(NC(=O)c2sc3nc(C)cc(C)c3c2N)c(OC)c1", "Potency": "inactive"},
      {"smiles": "CCCCn1c(/C=C/c2ccco2)nc2ccccc21", "Potency": "inactive"},
      {"smiles": "C=CCN(Cc1ccc(Cl)s1)C(=O)c1cc(S(=O)(=O)N2CCOCC2)ccc1F", "Potency": "inactive"},
      {"smiles": "CCOC(=O)[C@]12CCCC=C1N(Cc1cccc3ccccc13)C(=O)[C@H](CC(=O)N1CCCC1)C2", "Potency": "active: 9.2 µM"},
      {"smiles": "CC(C)C[C@H]1CN=C(N(C)C)N1CCc1cccc(F)c1", "Potency": "inactive"},
      {"smiles": "COc1ccc(Cl)cc1CC1(C)C(=O)Nc2ccc(S(=O)(=O)NC3CCCCC3)cc21", "note": "(stereo not given)", "Potency": "inactive"},
      {"smiles": "CSCCC(NC(=O)c1ccccc1Br)C(=O)Nc1ccc(C)cc1", "note": "(stereo not given)", "Potency": "inconclusive: 23.1 µM [cytotoxic, partial curve, poor fit]"},
      {"smiles": "CCOc1ccc(N(CC(=O)NC2CCCCC2)C(=O)Cn2nnc(-c3ccc(C)o3)n2)cc1", "Potency": "inconclusive: 6.51 µM [cytotoxic, partial curve, poor fit]"},
      {"smiles": "COc1ccc(O)c(-c2cc(-c3cccc(Br)c3)n[nH]2)c1", "Potency": "inconclusive: 20.6 µM [cytotoxic, single point]"},
      {"smiles": "COc1ccc(CCn2c3c(c(=O)[nH]c2=O)C(NC(=O)c2ccccc2)(C(F)(F)F)C(=O)N3)cc1OC", "note": "(stereo not given)", "Potency": "inconclusive: 29.1 µM [rising, single point]"},
      {"smiles": "COc1cc(C2c3c(-c4cc(Cl)c(C)cc4O)n[nH]c3C(=O)N2Cc2cccnc2)ccc1O", "note": "(stereo not given)", "Potency": "inconclusive: 29.1 µM [rising, single point]"},
      {"smiles": "COc1ccc(NC(=O)Nc2ccccn2)cc1OC", "Potency": "inconclusive: 20.6 µM [cytotoxic, single point]"},
      {"smiles": "CCCN1C(=O)/C(=C/C=C2\\N(CC)c3ccccc3C2(C)C)SC1=S", "Potency": "inconclusive: 0.461 µM [cytotoxic, partial curve, poor fit]"},
      {"smiles": "O=C(CSc1nnnn1C1CCCC1)Nc1cccc(NC(=O)c2ccco2)c1", "Potency": "inconclusive: 10.3 µM [cytotoxic, partial curve]"},
      {"smiles": "COc1cc(NC(=O)c2ccc3c(c2)OCO3)c2ncccc2c1", "Potency": "inactive"},
      {"smiles": "CC(C)OC(=O)c1cccc(C(=O)OCc2ccco2)n1", "Potency": "inconclusive: 7.31 µM [rising, partial curve, poor fit]"},
      {"smiles": "CCC(C)Nc1nnnc2c1sc1nc3c(cc12)COC(C)(C)C3", "note": "(stereo not given)", "Potency": "inconclusive: 20.6 µM [cytotoxic, single point]"},
      {"smiles": "O=C(c1ccccc1)N(Cc1cccnc1)C1(C(=O)Nc2ccccc2)CCCCC1", "Potency": "active: 10.3 µM"},
      {"smiles": "COC(=O)C1=C(C)N(C)C(C)=C(C(=O)OC)C1c1ccc(F)c(Br)c1", "Potency": "inconclusive: 25.9 µM [cytotoxic, single point]"},
      {"smiles": "O=C(NCc1ccco1)c1cc(-c2ccccc2)nn1CC1CC(c2cccc([N+](=O)[O-])c2)=NO1", "note": "(stereo not given)", "Potency": "inactive"},
      {"smiles": "O=C(N=C1SC2CS(=O)(=O)CC2N1c1ccc(OC(F)(F)F)cc1)C1CC1", "note": "(stereo not given)", "Potency": "inactive"},
      {"smiles": "CCCCCC(=O)N1CCN(CCN=CC2=C(O)CC(c3ccc(OC)c(OC)c3)CC2=O)CC1", "note": "(stereo not given)", "Potency": "inconclusive: 7.31 µM [rising, partial curve]"},
      {"smiles": "COc1cc(OC)cc(C(=O)Nc2c(C(=O)Nc3ccc(F)cc3)oc3ccccc23)c1", "Potency": "inconclusive: 3.26 µM [cytotoxic, partial curve, poor fit]"},
      {"smiles": "Cc1ccc(NC(=O)C2(S(=O)(=O)c3ccc(Cl)cc3)CC2)c(Br)c1", "Potency": "inconclusive: 29.1 µM [cytotoxic, partial curve, poor fit]"},
      {"smiles": "CN(c1ccccc1)S(=O)(=O)c1cccc(NC(=O)Cn2cnc3c2c(=O)n(C)c(=O)n3C)c1", "Potency": "inconclusive: 16.4 µM [cytotoxic, partial curve]"},
      {"smiles": "Cc1ccc(OCC(=O)N2C(C)CCCC2C)c([N+](=O)[O-])n1", "note": "(stereo not given)", "Potency": "inactive"},
      {"smiles": "CSc1ccc(CCNC(=O)C(C)n2c(C)c3cnn(-c4ccccc4)c(=O)c3c2C)cc1", "note": "(stereo not given)", "Potency": "inactive"},
      {"smiles": "COC(=O)c1sccc1NC(=O)CSc1ccccc1NS(=O)(=O)c1cc(Cl)ccc1Cl", "Potency": "inconclusive: 23.1 µM [cytotoxic, single point]"},
      {"smiles": "COc1ccc2nc(N3C(=O)CC(C(C)c4ccccc4)C3=O)sc2c1", "note": "(stereo not given)", "Potency": "inactive"},
      {"smiles": "O=S1(=O)CC(N2CCSCC2)CN1Cc1cn(Cc2ccc(Cl)cc2)nn1", "note": "(stereo not given)", "Potency": "inconclusive: 23.1 µM [cytotoxic, partial curve]"},
      {"smiles": "CC(O)(c1cccc(F)c1)c1nc(-c2ccc3c(c2)OCO3)cs1", "note": "(stereo not given)", "Potency": "inactive"},
      {"smiles": "COc1cc(C(=O)NNC(=O)c2ccc(S(=O)(=O)N3CCCCC3)cc2)cc(OC)c1OC", "Potency": "inactive"},
      {"smiles": "CC(=O)Nc1ccc(S(=O)(=O)Nc2ccc(S(=O)(=O)N3CCCC3)cc2)cc1", "Potency": "inactive"},
      {"smiles": "CC1CN(c2ccc(C(=O)c3ccccc3C(=O)O)cc2[N+](=O)[O-])CC(C)O1", "note": "(stereo not given)", "Potency": "inactive"},
      {"smiles": "O=C(NNC1=Nc2cccc3cccc1c23)c1ccccc1Br", "Potency": "inconclusive: 6.51 µM [cytotoxic, partial curve]"},
      {"smiles": "CCCN1C(=O)S/C(=C/c2ccc(N3CCOCC3)o2)C1=O", "activity change, negative = cytotoxicity": "inconclusive: -5.01%"},
      {"smiles": "COc1ccc(-c2nc3c(=O)n(C)c(=O)nc-3n(C)n2)cc1", "Potency": "active: 4.61 µM"},
      {"smiles": "Cc1c(CN(C)C)c2c(n1Cc1ccccc1)C(=O)c1ccccc1-2", "Potency": "inconclusive: 20.6 µM [cytotoxic, single point]"}
    ]}
  ]
}
